This test has as its target VSV-Rvs167 (S. cerevisiae) (UniProt P39743). The test is described as follows: co-IP; total extracts of log-phase yeast cells co-expressing the tagged proteins (rvs167Δrvs161Δ, rvs167Δgvp36Δ, rvs161Δgvp36Δ, rvs167Δ, rvs167Δrvs161Δgvp36Δ or diploid cells); lysis buffer 20 mM Tris-HCl pH 7.5, 100 mM NaCl, 1 mM EDTA, 0.5% Triton X-100; anti-Myc, anti-HA, anti-GFP or anti-VSV antibody and protein G-agarose, 4 °C; washes up to 300 mM NaCl.

By UniProt entry, the sequences of proteins in these tests, tags left out. Where a name states a change or a piece, a line headed by the entry shows the natural chain unless it says otherwise.
UniProt P39743, whole entry: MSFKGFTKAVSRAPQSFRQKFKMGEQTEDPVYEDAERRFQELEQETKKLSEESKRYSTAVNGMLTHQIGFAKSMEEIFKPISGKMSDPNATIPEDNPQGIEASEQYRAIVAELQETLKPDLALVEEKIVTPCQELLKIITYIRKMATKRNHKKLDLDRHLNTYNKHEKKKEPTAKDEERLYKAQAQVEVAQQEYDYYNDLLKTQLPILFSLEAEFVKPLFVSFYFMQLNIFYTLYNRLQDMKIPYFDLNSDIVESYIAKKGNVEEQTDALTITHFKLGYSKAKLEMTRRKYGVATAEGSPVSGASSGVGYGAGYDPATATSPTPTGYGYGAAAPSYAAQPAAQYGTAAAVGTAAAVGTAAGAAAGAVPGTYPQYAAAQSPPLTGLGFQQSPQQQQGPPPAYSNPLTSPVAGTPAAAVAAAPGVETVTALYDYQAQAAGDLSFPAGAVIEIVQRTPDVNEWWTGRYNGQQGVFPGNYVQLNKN

Results are given in words; binding and its absence hold for the method and conditions named. In cells and extracts the contact can be indirect. Some entries that bind do so weakly or less than the wild type.

Consider “GFP-Rvs167 P473L (from UniProt P39743 1-482)”, for which the binding entry is “binds”.

(Values after PMC6997364.)
